According to patent US20150299335A1 (X BODY, published 2015):
No constants are given. Whether binding was seen depends on the method and setting. Some binding calls cover weakened binding; strength is not graded here.

Biological target: T1, HER2 (UniProt P04626 23-652, limits assumed)
T1 construct: also called receptor tyrosine-protein kinase erbB-2
Assay: FACS-based competition assay

binding: binds
B1: B8 anti-HER2 VH domain (other)
VH: EVQLVESGAEVKEPGASVKVSCKSSGYSFTGNYMHWVRQAPGQGLEWMGWMNPKSGGTYYAQKFQGRVTMTWDTSISTAYMELSGLTSDDTAVYYCARWARGSTSPHGLDVWGQGTLVTVSS
notes: Stand-alone antibody VH domain with no light chain; also called B8 VH domain; B8 VH
